No constants are given. Whether binding was seen depends on the method and setting. Where a sequence is shown, tags or fusion partners need not be part of it.
Biological target: T1, Dms1, Gal4 DNA-binding domain fusion from pGBT9(dms1) (S. pombe) (UniProt O74466)
T1 sequence: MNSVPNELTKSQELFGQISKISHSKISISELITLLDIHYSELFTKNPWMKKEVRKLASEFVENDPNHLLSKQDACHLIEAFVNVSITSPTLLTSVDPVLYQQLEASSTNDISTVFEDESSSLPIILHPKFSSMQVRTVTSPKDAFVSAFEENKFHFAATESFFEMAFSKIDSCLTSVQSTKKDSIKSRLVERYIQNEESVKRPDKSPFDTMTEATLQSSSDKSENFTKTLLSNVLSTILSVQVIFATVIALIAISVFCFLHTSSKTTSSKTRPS
Test: two-hybrid; Gal4 activation domain (AD) and Gal4 DNA-binding domain (BD) fusions tested in yeast (S3 Fig A)

binding, no binding:
Spo15 1000aaΔ, Gal4 activation domain fusion from pGAD424(spo15 1000aaΔ) (S. pombe) (domain or fragment)
Spo15 750aaΔ, Gal4 activation domain fusion from pGAD424(spo15 750aaΔ) (S. pombe) (domain or fragment)
Spo15 1250aaΔ, Gal4 activation domain fusion from pGAD424(spo15 1250aaΔ) (S. pombe) (domain or fragment)
Spo15 500aaΔ, Gal4 activation domain fusion from pGAD424(spo15 500aaΔ) (S. pombe) (domain or fragment)

From paper PMC5973557
